In paper doi:10.1101/2023.04.06.535843:
No constants are given. Whether binding was seen depends on the method and setting. Binding seen in cells or lysates may run through a third protein. Some binding calls cover weakened binding; strength is not graded here.

Tests used:
Assay in all cases: co-IP
[1] = target: T1, zebrafish Lhx1b (zebrafish) (UniProt O13106)
T1 sequence: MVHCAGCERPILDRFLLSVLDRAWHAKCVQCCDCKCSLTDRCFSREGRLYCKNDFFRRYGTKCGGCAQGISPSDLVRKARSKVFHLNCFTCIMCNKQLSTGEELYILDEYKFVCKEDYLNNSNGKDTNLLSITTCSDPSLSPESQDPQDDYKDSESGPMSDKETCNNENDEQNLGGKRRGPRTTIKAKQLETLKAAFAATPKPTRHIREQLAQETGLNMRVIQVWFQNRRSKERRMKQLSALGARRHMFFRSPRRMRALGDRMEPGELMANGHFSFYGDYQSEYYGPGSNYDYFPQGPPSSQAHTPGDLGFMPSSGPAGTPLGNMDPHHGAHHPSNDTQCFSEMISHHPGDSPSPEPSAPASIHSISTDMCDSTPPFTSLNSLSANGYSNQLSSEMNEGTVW

[2] = target: T2, zebrafish Lhx1a (zebrafish) (UniProt Q90476)
T2 sequence: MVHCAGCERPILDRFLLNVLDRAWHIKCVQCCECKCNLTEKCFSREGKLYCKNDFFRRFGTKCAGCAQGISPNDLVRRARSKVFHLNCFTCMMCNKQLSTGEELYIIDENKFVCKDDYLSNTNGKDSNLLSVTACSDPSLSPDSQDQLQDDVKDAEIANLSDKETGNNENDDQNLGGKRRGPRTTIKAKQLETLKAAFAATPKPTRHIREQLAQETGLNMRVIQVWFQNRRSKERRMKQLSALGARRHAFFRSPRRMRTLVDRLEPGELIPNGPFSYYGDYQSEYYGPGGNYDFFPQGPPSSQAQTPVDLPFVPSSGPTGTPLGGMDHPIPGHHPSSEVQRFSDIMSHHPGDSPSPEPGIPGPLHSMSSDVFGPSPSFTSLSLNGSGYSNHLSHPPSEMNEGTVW

[3] = target: T3, zebrafish Lhx5 (zebrafish) (UniProt P52889)
T3 sequence: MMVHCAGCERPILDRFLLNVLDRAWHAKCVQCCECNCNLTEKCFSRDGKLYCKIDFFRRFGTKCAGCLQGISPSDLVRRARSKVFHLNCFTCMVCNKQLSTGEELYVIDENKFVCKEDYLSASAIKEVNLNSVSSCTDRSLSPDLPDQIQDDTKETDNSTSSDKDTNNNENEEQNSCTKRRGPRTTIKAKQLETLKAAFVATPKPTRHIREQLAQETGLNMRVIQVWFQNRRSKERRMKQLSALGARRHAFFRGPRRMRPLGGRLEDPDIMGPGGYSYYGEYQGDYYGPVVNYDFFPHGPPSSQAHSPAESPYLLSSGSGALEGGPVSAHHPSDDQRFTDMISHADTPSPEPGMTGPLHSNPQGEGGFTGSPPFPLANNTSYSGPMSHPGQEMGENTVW

Measured: binding

B1: zebrafish Skor1b (protein, UniProt Q1LXZ9 1-751)
chain: MESIPNQLPAGRDSSCSPNSKDLQSYSGPPLKPNQVSETSLYGIPIVSLVIDGQERLCLAQISNTLLKNYSYNEIHNRRVALGITCVQCTPVQLEILRRAGAMPISSRRCGMITKREAERLCKSFLGAHSPPKLPENFAFDVSHECAWGSRGNFIPARYNSSRAKCIKCSFCNMYFSPNKFIFHSHRTPESKYTQPDAANFNSWRRHLKLSDKNSSDDVIHAWEDVKAMFNGGSRKRTLPIGRSESSPSQPPRGQTQGEPSDVPHKTLRCEDDRVNVTMPSSIRSYPVIPVPSKSFGMLQKIPPPLFPHPYGFPAFGLCQKKDDGEVMGEPNKTNLSGVFWPSPKDSAYTSFPMFWPTTGSLAMPTYHHAQPKPPSDVLCARHNELDVSEQSDRSTSTPKDSLLDNERCSSTQSTRNEEDKSGDESRSIEGIPPTSRKISYISAFRPVVKDVESIAKLYGNRGPYSGPRSGYMSPDFLSESSSYRSVSPDVDSVDDPDVDVESHKAHEDEECLQLSVDDRRSPHSLTLAQSEGVKGQDQENTQMHTLNDLHSTNSSETRPSDMESHGNKHTTRFEVYARERDEHVHQMSTSYFGSATTYQRETSVKDVHEEEPSSTVEEMEPKNHQDENNISEERLKEPNDVCADEEAICKDTGNRGSLIEKNIESMAKEELQKQLVEQVELRKKLEREFQNLKDSFQDQMKRELSYREEMVQQLQIVREAHDALHHFSCKMLTPRHCTGTCTFKPPLLPP
binds: all assays above
